Drawing on article PMC10290082, this text covers binding for one substance.

Protein sequences, listed by entry. Tags and fused reporters are not part of them.
UniProt Q00987: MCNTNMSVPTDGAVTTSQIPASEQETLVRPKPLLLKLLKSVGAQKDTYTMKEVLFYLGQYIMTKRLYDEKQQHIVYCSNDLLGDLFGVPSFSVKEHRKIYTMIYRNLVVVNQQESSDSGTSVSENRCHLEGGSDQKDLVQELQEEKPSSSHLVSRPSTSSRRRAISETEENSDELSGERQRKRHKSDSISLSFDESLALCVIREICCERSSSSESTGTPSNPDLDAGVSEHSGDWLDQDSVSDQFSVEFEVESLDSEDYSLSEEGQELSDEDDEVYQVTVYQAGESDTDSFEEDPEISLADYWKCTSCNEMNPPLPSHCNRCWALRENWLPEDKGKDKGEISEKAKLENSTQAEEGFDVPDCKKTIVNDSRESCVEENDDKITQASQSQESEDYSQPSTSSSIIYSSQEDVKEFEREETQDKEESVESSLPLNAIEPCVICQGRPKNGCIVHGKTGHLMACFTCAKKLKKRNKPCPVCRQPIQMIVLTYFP

The assay has as its target T1, pDIQ peptide.
T1 sequence (peptide): ETFEHWWSQLLSGGC
The assay can be described thus: pull-down; lysates of HeLa cells expressing T11β1-MDM2, Tau-HAT10 and T10HA-P53, 30 min at room temperature with pDIQ-conjugated beads; capture of MDM2 by the peptide; only the target purified.

Results are given in words; binding and its absence hold for the method and conditions named. In cells and extracts the contact can be indirect. Some results given as binding are weak or reduced against the parent protein; the word gives no strength.

T11β1-MDM2 (from UniProt Q00987 1-491): the binding entry is “binds”.
